# Test results published in the supplement of paper PMC8728848.
# This is one part of the list.
# B1: Blon2355mut (Bifidobacterium longum) (protein)
# chain: MVQEPTLEWHVIPEPTNVEPLVGTCSLPLSGTVVEQRGADDAEAVFARQLVDDIKRVCGGRWQVASGEVQREVTLRTSPSLDDWSYVLEVSPDGVVITGSGFEGVRDGVQTLRQIIRQIGLTIPCMVIRDRPAFSTRGYYLDVTRGRVPSMAWLKSWVDRLCFYKYNQFQLYIEHTFQFNGLSEVWRGADPLTSSDILELDSYCAARGIELVPSVSTFGHHYTALRTRQLRDLGEFPEDADRPFSLIERMTHHTLNITDERSYEFSTSLIDELMPLFRSRKFNICANETFDLGKGRSKQESAKRGVGAMYADFVERLCRHVDDRGHDVMVWADVALEHPEIIDTLPKNITWLNWQYEPNVDDGTTAALADAGATQMVCPAVWCWNALIPRIDDAWNNITRMARHGRAHDVSGMLVTDWGDFGHVNDPRMSVPGMIFGAQQSWNPDAELSEVDMLSRISTIEYGDHTGSVVGALRGASAKGGFSWSDLVTYLELDDGRGGCNTEIVRVMGCLEAYRNDLPQSGQARLADARVSMLRTLRDSILAGRELNGKLDDAAKDITQLLRVAGDPSSAAVWSLAIDGQRLLNRVGLALLAAHGVVRQDEAGIDAAKLADELECWTEQYSRLWHEVSRQSELARIQHVVWRAADVLRSI
# What was measured:
# Assay in all cases: glycan array binding signal (z-score within array); higher = stronger binding
# Conditions in all cases: glycan notation: IUPAC condensed, linker removed
# [1] = target: Neu5Ac(a2-3)Gal(b1-3)[Fuc(a1-4)]GlcNAc(b1-3)Gal(b1-3)[Fuc(a1-4)]GlcNAc
# In short: (§1)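 The Consortium for Functional Glycomics database supplied 3228 glycan arrays, of which those lacking an available protein sequence were dropped. The binding signal, a within-array Z-score, was averaged across arrays of the same protein sequence and across linkers. Negative scores can be read as non-binding.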
# [2] = target: Neu5Ac(a2-3)Gal(b1-3)[Fuc(a1-4)]GlcNAc(b1-3)Gal(b1-4)[Fuc(a1-3)]GlcNAc
# In short: as §1
# [3] = target: Neu5Ac(a2-3)Gal(b1-3)[GlcNAc(b1-6)]GalNAc
# In short: as §1
# [4] = target: Neu5Ac(a2-3)Gal(b1-3)[Neu5Ac(a2-6)]GalNAc
# In short: as §1
# [5] = target: Neu5Ac(a2-3)Gal(b1-3)[Neu5Ac(a2-6)]GlcNAc(b1-3)[Fuc(a1-3)[Gal(b1-4)]GlcNAc(b1-6)]Gal(b1-4)Glc
# In short: as §1
# [6] = target: Neu5Ac(a2-3)Gal(b1-3)]Neu5Ac(a2-3)Gal(b1-4)]GlcNAc
# In short: as §1
# Neu5Ac(a2-3)Gal(b1-4)Glc = target: Neu5Ac(a2-3)Gal(b1-4)Glc
# In short: as §1
# [7] = target: Neu5Ac(a2-3)Gal(b1-4)GlcNAc
# In short: as §1
# [8] = target: Neu5Ac(a2-3)Gal(b1-4)GlcNAc(b1-2)Man
# In short: as §1
# [9] = target: Neu5Ac(a2-3)Gal(b1-4)GlcNAc(b1-2)Man(a1-3)[GlcNAc(b1-4)][Neu5Ac(a2-3)Gal(b1-4)GlcNAc(b1-2)Man(a1-6)]Man(b1-4)GlcNAc(b1-4)GlcNAc
# In short: as §1
# [10] = target: Neu5Ac(a2-3)Gal(b1-4)GlcNAc(b1-2)Man(a1-3)[Neu5Ac(a2-3)Gal(b1-4)GlcNAc(b1-2)Man(a1-6)]Man(b1-4)GlcNAc(b1-4)GlcNAc
# In short: as §1
# [11] = target: Neu5Ac(a2-3)Gal(b1-4)GlcNAc(b1-2)Man(a1-3)[Neu5Ac(a2-3)Gal(b1-4)GlcNAc(b1-2)Man(a1-6)]Man(b1-4)GlcNAc(b1-4)[Fuc(a1-6)]GlcNAc
# In short: as §1
# [12] = target: Neu5Ac(a2-3)Gal(b1-4)GlcNAc(b1-2)Man(a1-3)[Neu5Ac(a2-6)Gal(b1-4)GlcNAc(b1-2)Man(a1-6)]Man(b1-4)GlcNAc(b1-4)GlcNAc
# In short: as §1
# [13] = target: Neu5Ac(a2-3)Gal(b1-4)GlcNAc(b1-2)[Neu5Ac(a2-3)Gal(b1-4)GlcNAc(b1-2)]Man(a1-6)[Neu5Ac(a2-3)Gal(b1-4)GlcNAc(b1-2)Man(a1-3)][GlcNAc(b1-4)]Man(b1-4)GlcNAc(b1-4)GlcNAc
# In short: as §1
# [14] = target: Neu5Ac(a2-3)Gal(b1-4)GlcNAc(b1-2)[Neu5Ac(a2-3)Gal(b1-4)GlcNAc(b1-4)]Man(a1-3)[GlcNAc(b1-4)][Neu5Ac(a2-3)Gal(b1-4)GlcNAc(b1-2)[Neu5Ac(a2-3)Gal(b1-4)GlcNAc(b1-6)]Man(a1-6)]Man(b1-4)GlcNAc(b1-4)GlcNAc
# In short: as §1
# [15] = target: Neu5Ac(a2-3)Gal(b1-4)GlcNAc(b1-2)[Neu5Ac(a2-3)Gal(b1-4)GlcNAc(b1-4)]Man(a1-3)[GlcNAc(b1-4)][Neu5Ac(a2-3)Gal(b1-4)GlcNAc(b1-4)Man(a1-6)]Man(b1-4)GlcNAc(b1-4)GlcNAc
# In short: as §1
# [16] = target: Neu5Ac(a2-3)Gal(b1-4)GlcNAc(b1-2)[Neu5Ac(a2-3)Gal(b1-4)GlcNAc(b1-6)]Man(a1-6)[Neu5Ac(a2-3)Gal(b1-4)GlcNAc(b1-2)Man(a1-3)]Man(b1-4)GlcNAc(b1-4)GlcNAc
# In short: as §1
# [17] = target: Neu5Ac(a2-3)Gal(b1-4)GlcNAc(b1-3)Gal
# In short: as §1
# [18] = target: Neu5Ac(a2-3)Gal(b1-4)GlcNAc(b1-3)Gal(b1-3)GlcNAc
# In short: as §1
# [19] = target: Neu5Ac(a2-3)Gal(b1-4)GlcNAc(b1-3)Gal(b1-4)GlcNAc
# In short: as §1
# [20] = target: Neu5Ac(a2-3)Gal(b1-4)GlcNAc(b1-3)Gal(b1-4)GlcNAc(b1-2)Man(a1-3)[Neu5Ac(a2-3)Gal(b1-4)GlcNAc(b1-3)Gal(b1-4)GlcNAc(b1-2)Man(a1-6)]Man(b1-4)GlcNAc(b1-4)GlcNAc
# In short: as §1
# [21] = target: Neu5Ac(a2-3)Gal(b1-4)GlcNAc(b1-3)Gal(b1-4)GlcNAc(b1-3)Gal(b1-4)GlcNAc
# In short: as §1
# [22] = target: Neu5Ac(a2-3)Gal(b1-4)GlcNAc(b1-3)Gal(b1-4)GlcNAc(b1-3)Gal(b1-4)GlcNAc(b1-2)Man(a1-3)[Neu5Ac(a2-3)Gal(b1-4)GlcNAc(b1-3)Gal(b1-4)GlcNAc(b1-3)Gal(b1-4)GlcNAc(b1-2)Man(a1-6)]GalNAc
# In short: as §1
# [23] = target: Neu5Ac(a2-3)Gal(b1-4)GlcNAc(b1-3)Gal(b1-4)GlcNAc(b1-3)GalNAc
# In short: as §1
# [24] = target: Neu5Ac(a2-3)Gal(b1-4)GlcNAc(b1-3)Gal(b1-4)GlcNAc(b1-3)[Neu5Ac(a2-3)Gal(b1-4)GlcNAc(b1-3)Gal(b1-4)GlcNAc(b1-6)]GalNAc
# In short: as §1
# [25] = target: Neu5Ac(a2-3)Gal(b1-4)GlcNAc(b1-3)Gal(b1-4)GlcNAc(b1-6)[Gal(b1-3)]GalNAc
# In short: as §1
# [26] = target: Neu5Ac(a2-3)Gal(b1-4)GlcNAc(b1-3)Gal(b1-4)[Fuc(a1-3)]GlcNAc
# In short: as §1
# [27] = target: Neu5Ac(a2-3)Gal(b1-4)GlcNAc(b1-3)GalNAc
# In short: as §1
# [28] = target: Neu5Ac(a2-3)Gal(b1-4)GlcNAc(b1-3)[Neu5Ac(a2-3)Gal(b1-4)GlcNAc(b1-6)]GalNAc
# In short: as §1
# [29] = target: Neu5Ac(a2-3)Gal(b1-4)GlcNAc(b1-6)GalNAc
# In short: as §1
binder,measurement,setting,value
B1,glycan array binding signal (z-score),[1],-0.494
same,glycan array binding signal (z-score),[2],1.67
same,glycan array binding signal (z-score),[3],0.393
same,glycan array binding signal (z-score),[4],-0.544
same,glycan array binding signal (z-score),[5],4.03
same,glycan array binding signal (z-score),[6],0.621
same,glycan array binding signal (z-score),Neu5Ac(a2-3)Gal(b1-4)Glc,3.29
same,glycan array binding signal (z-score),[7],-0.297
same,glycan array binding signal (z-score),[8],1.97
same,glycan array binding signal (z-score),[9],-0.775
same,glycan array binding signal (z-score),[10],0.367
same,glycan array binding signal (z-score),[11],-0.94
same,glycan array binding signal (z-score),[12],-0.951
same,glycan array binding signal (z-score),[13],-0.915
same,glycan array binding signal (z-score),[14],-0.925
same,glycan array binding signal (z-score),[15],-0.034
same,glycan array binding signal (z-score),[16],-1.1
same,glycan array binding signal (z-score),[17],-1.09
same,glycan array binding signal (z-score),[18],-0.299
same,glycan array binding signal (z-score),[19],-0.31
same,glycan array binding signal (z-score),[20],-0.289
same,glycan array binding signal (z-score),[21],-0.098
same,glycan array binding signal (z-score),[22],1.09
same,glycan array binding signal (z-score),[23],-0.082
same,glycan array binding signal (z-score),[24],1.42
same,glycan array binding signal (z-score),[25],-0.53
same,glycan array binding signal (z-score),[26],0.142
same,glycan array binding signal (z-score),[27],-0.411
same,glycan array binding signal (z-score),[28],2.06
same,glycan array binding signal (z-score),[29],-1.01

# Another view of part of the listing above:
binder	measurement	setting	value
B1	glycan array binding signal (z-score)	[23]	-0.082
same	glycan array binding signal (z-score)	[24]	1.42
